# Data reported in PubChem BioAssay AID504834 (National Center for Advancing Translational Sciences (NCATS), 2011).
# Screen size: about 320,000 compounds; about 22,000 (6.9%) were called active. Inconclusive results, whose numbers are uncertain, are shown with a selection of clear calls. The call rests on the fitted dose curve; in most records, active means well fitted inhibition curve with a large enough effect; inconclusive means small, poorly fitted or top-dose-only effect, or another doubt; inactive means no such curve, though single readings can be large or run the other way. Potencies beside an inconclusive call are fits to weak or partial responses and may not hold up.
# Experiment: Primary qHTS for delayed death inhibitors of the malarial parasite plastid, 96 hour incubation
# Settings: P. falciparum luciferase reporter growth; series mostly up to 28.7 µM
# Method in brief: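 Delayed-death screen, second-generation endpoint: infected erythrocytes, 2% hematocrit, 0.05% parasitemia final; 96 hours at 37 C, 5% CO2; luciferase detection reagent; luminescence decrease equals reduced growth.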
# Potency means the concentration at half of the fitted maximal effect.
row,SMILES,Potency
1,O=C(NCCn1c(C(F)(F)F)nc2ccccc21)[C@H]1CCCN1c1nc(CN2CCCCC2)cs1,"inconclusive: 4.15 µM [inhibitor, single point]"
2,COc1ccc(-c2nc(CS(=O)CC(=O)NCCCN3CCOCC3)c(C)o2)cc1OC (configuration not stated),"inconclusive: 18.5 µM [inhibitor, single point]"
3,COc1ccc(C(=O)N2CCc3cc(OC)c(OC)cc3C2c2cccc([N+](=O)[O-])c2)cc1 (configuration not stated),"inconclusive: 2.94 µM [inhibitor, full curve]"
4,O=C(NCc1ccc(F)cc1)Nc1cccc([N+](=O)[O-])c1,"inconclusive: 18.5 µM [inhibitor, single point]"
5,CCN(CC)c1ccc(CN(C(=O)c2cccs2)C2CCS(=O)(=O)C2)cc1 (configuration not stated),"inconclusive: 18.5 µM [inhibitor, single point]"
6,COc1cccc(CN2CCc3ccc(NC(=O)CCc4ccc(C)cc4)cc3C2)c1O,"inconclusive: 20.8 µM [inhibitor, partial curve, poor fit]"
7,Cc1ccnc(NS(=O)(=O)c2cnc(Cl)c(Br)c2)c1,"inconclusive: 11.7 µM [inhibitor, single point]"
8,CCOc1ccccc1NC(=O)CSc1n[nH]c(N)n1,"inconclusive: 7.38 µM [inhibitor, partial curve]"
9,c1ccc(C2[C@H]3CN(Cc4cccnc4)[C@H](c4ccccc4)C34CC2(c2ccccc2)C4)cc1 (some centres not stated),active: 3.29 µM
10,CCc1c(-c2ccccc2)nc2nc(C)c(C)nn12,inactive
11,COc1cccc(Oc2coc3cc(OC(=O)N4CCOCC4)ccc3c2=O)c1,"inconclusive: 16.5 µM [inhibitor, single point]"
12,O=C(/C=C/c1ccco1)NC1=NCCS1,"inconclusive: 9.28 µM [inhibitor, partial curve, poor fit]"
13,COc1ccc(Cn2nnc3ccccc32)cc1,"inconclusive: 18.5 µM [inhibitor, single point]"
14,COc1ccc(CC(=O)Nc2ccc(C(=O)Nc3ccccc3C(=O)O)cc2)cc1OC,"inconclusive: 3.7 µM [inhibitor, single point]"
15,COc1cccc(N(C(=O)Cc2cccs2)C(C(=O)NC2CCCC2)c2ccncc2)c1 (configuration not stated),inactive
16,COC(=O)CCCNC(=O)c1ccc(OC2CCN(CCc3ccccc3)CC2)cc1,inactive
17,CSc1ccccc1NC(=O)CN(C)C(=O)c1ccc(-n2cccn2)cc1,inactive
18,O=C(COCc1cc(-c2ccc3c(c2)OCO3)on1)N1CCN(c2ccc(F)cc2)CC1,"inconclusive: 0.233 µM [inhibitor, full curve, poor fit]"
19,Cc1cc(S(=O)(=O)N2CCCC2C(=O)N2CCOCC2)c(C)cc1Cl (configuration not stated),"inconclusive: 20.8 µM [inhibitor, partial curve, poor fit]"
20,Cn1c(=O)c(C(=O)CN2CCc3ccccc32)c(N)n(Cc2ccccc2)c1=O,active: 8.28 µM
21,Cc1ccc(CNC(=O)C2CCC(=O)N(CC3CCCCC3)C2)o1 (configuration not stated),"inconclusive: 13.1 µM [inhibitor, partial curve, poor fit]"

row,SMILES,Potency
1,CCCCCCC(=O)Cc1cc(OC)c(OC)cc1C=C(C(=O)OCC)C(=O)OCC,"inconclusive: 10.4 µM [inhibitor, single point]"
2,O=S(=O)(Nc1ccc(O)c2ccccc12)c1cccs1,inactive
3,O=C(O)/C=C/c1ccc(S(=O)(=O)Nc2ccc(C(=O)NCC(=O)O)cc2)cc1,inactive
4,CC(C)(C)C(C(Oc1ccc(Cl)cc1)n1cncn1)n1nnnc1C(c1cccc(Cl)c1)N1CCCCC1 (configuration not stated),active: 2.08 µM
5,Cc1nc(Cl)c(C(=O)NC(=O)Nc2cccc(C(F)(F)F)c2)c(C)c1[N+](=O)[O-],"inconclusive: 18.5 µM [inhibitor, single point]"
6,CCCCN(CC)C(=O)C1CCC(CNS(=O)(=O)c2cccc3nsnc23)CC1 (configuration not stated),"inconclusive: 10.4 µM [inhibitor, single point]"
7,CC(=O)Nc1ccc(NCN2C(=O)[C@@H]3[C@H]4CC[C@H](C4)[C@@H]3C2=O)cc1,inactive
8,CCOC(=O)N1CCc2c(sc(NC(=O)c3ccc(Cl)s3)c2C(N)=O)C1,active: 13.1 µM
9,O=C(C1CC1)N1CCc2cc(Br)cc(S(=O)(=O)NCc3ccc4c(c3)OCO4)c21,"inconclusive: 16.5 µM [inhibitor, single point]"
10,Cc1cccc(N2CCN(C(=O)/C=C/c3cccs3)CC2C)c1 (configuration not stated),"inconclusive: 8.28 µM [inhibitor, partial curve, poor fit]"
11,COc1ccc(C(NC(=O)CN2CCCCCC2)c2ccc(OC)cc2)cc1,"inconclusive: 0.415 µM [inhibitor, full curve]"
12,COc1ccc(-c2ccc(SCc3cccnc3)nn2)cc1OC,"inconclusive: 11.7 µM [inhibitor, partial curve, poor fit]"
13,Cc1ncc([N+](=O)[O-])n1CC(=O)Nc1ccc(Cl)cc1,"inconclusive: 9.28 µM [inhibitor, partial curve]"
14,NC(N)=N/N=C/c1ccc(OCc2ccccc2)cc1,active: 1.47 µM
15,CCc1ccc2c(c1)C(c1cccs1)=NNC(c1cccnc1)=N2,"inconclusive: 0.415 µM [inhibitor, partial curve, poor fit]"
16,COCCn1c(C)cc(C(=O)COc2ccc(N(C)S(=O)(=O)c3ccc(C)cc3)cc2)c1C,"inconclusive: 5.22 µM [inhibitor, partial curve, poor fit]"
17,Cc1cc(C)c(C(=O)N2CCC(N3CCC(C(=O)NC(C)C)CC3)CC2)o1,active: 11.7 µM
18,COCc1ccc(CN2CCC(n3nccc3NC(=O)CCOc3ccccc3)CC2)o1,"inconclusive: 20.8 µM [inhibitor, single point]"
19,COc1cc(C2NC(=O)CCC2[N+](=O)[O-])cc(Br)c1OC (configuration not stated),inactive
20,N#Cc1c(N)n(-c2ccc(N)cc2)c2nc3ccccc3nc12,"inconclusive: 18.5 µM [inhibitor, single point]"
21,O=C(CNc1ccccc1Cl)c1ccc(Br)cc1,"inconclusive: 16.5 µM [inhibitor, single point]"

# A different layout for 3 compounds above.
row	SMILES	Potency
5	Cc1nc(Cl)c(C(=O)NC(=O)Nc2cccc(C(F)(F)F)c2)c(C)c1[N+](=O)[O-]	inconclusive: 18.5 µM [inhibitor, single point]
6	CCCCN(CC)C(=O)C1CCC(CNS(=O)(=O)c2cccc3nsnc23)CC1 (configuration not stated)	inconclusive: 10.4 µM [inhibitor, single point]
7	CC(=O)Nc1ccc(NCN2C(=O)[C@@H]3[C@H]4CC[C@H](C4)[C@@H]3C2=O)cc1	inactive
